# Reference: PubChem BioAssay AID743193 (National Center for Advancing Translational Sciences (NCATS), 2013)
# Protein sequences, listed by entry. Tags and fused reporters are not part of them. Lines headed by an entry give the natural chain unless they say otherwise; changes in a name come on top.
# UniProt P46406: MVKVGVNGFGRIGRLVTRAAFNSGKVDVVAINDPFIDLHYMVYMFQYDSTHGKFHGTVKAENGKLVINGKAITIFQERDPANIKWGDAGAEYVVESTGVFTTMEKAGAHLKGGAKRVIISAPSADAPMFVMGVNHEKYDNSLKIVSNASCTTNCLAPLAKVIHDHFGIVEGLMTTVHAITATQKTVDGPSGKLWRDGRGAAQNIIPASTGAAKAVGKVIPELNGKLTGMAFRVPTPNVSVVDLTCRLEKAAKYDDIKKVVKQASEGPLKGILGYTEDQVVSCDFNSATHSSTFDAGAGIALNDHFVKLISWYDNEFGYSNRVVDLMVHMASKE
# The shares of active, inactive and inconclusive entries below differ from those in the screen. Potencies beside an inconclusive call are fits to weak or partial responses and may not hold up. The source made the active and inactive calls. Calls follow the shape of the dose curve; as a rule, active = well fitted curve in the direction sought with a large enough effect; inconclusive = small, poorly fitted or top-dose-only effect, or another doubt; inactive = no such curve, though single readings can be large or run the other way.
# Molecular target: Glyceraldehyde-3-phosphate dehydrogenase (Oryctolagus cuniculus) (UniProt P46406)
# Assay: Extended Characterization of HPGD Inhibitors: Counterscreen Against rGAPDH
# Conditions: rabbit GAPDH/diaphorase coupled resazurin fluorescence; series mostly up to 57.1 µM; activity change, negative = inhibition: at the top concentration
# Procedure: The central role of HPGD is to inactivate prostaglandins such as prostaglandin E2 (PGE2) or prostaglandin D2 (PGD2). These prostaglandins are involved in a number of processes, including inflammation, differentiation, and cellular signaling, which makes HPGD an important target for pharmacological intervention. The counterscreen for non-specific dehydrogenase activity was conducted using a rabbit glyceraldehyde-3-phosphate dehydrogenase (rGAPDH; Sigma Aldrich, St. Louis, MO) coupled assay system. […] Thus, rGAPDH activity leads to an increase in fluorescence at 598 nm, and inhibitors of the reaction lead to a decrease in resorufin production and a subsequent decrease in fluorescence. The change in fluorescence between 0 and 30 minutes was measured, and data were normalized to control columns representing maximum signal (all components) and background (no rGAPDH). […]
# 3 uL of substrate buffer (final conc: 2 mM G3P, 1 mM NAD+, 0.1 mM resazurin, 0.1 mg/mL diaphorase) are added to the 1536-well plate before 23 nL of compound library is pinned into the well. Then, 1 uL of rGAPDH or 0x control (final conc: 2 nM and buffer only, resp.) are added and plate is immediate read for fluorescence on the ViewLux; ex 525, em 598, 1 second exposure, Bodipy Mirror), incubated for 30 at RT before a final read on the ViewLux with the same settings.
SMILES,"activity change, negative = inhibition",Potency
Cc1cccc(-n2cnc3cc(C(=O)N4CCCC(C)(C)C4)ccc32)c1,inactive: 4.68%,
Cc1cc(-c2nnc3n2CCCCC3)c(C)n1-c1cccc(C#N)c1,,"inconclusive: 6.81 µM [inhibitor, partial curve]"
